# Experimental data from PMC8120473.
# Sequences of proteins named here, by UniProt entry; tags and fusion partners are left off.
# UniProt P60953: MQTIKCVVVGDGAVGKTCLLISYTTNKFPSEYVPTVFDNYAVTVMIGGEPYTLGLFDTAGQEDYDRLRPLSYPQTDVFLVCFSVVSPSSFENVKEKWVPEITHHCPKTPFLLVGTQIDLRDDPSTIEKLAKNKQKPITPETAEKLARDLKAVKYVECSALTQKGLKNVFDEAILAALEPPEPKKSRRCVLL
# Results are given in words; binding and its absence hold for the method and conditions named. In cells and extracts the contact can be indirect. Some entries that bind do so weakly or less than the wild type.
# Biological target: cell division cycle-42 (CDC42) (human (endogenous in HCT116 and RKO)) (UniProt P60953)
# Experiment: co-IP; cell lysate incubated with CDC42 antibody (rabbit, ab187643) overnight at 4 °C, A/G magnetic beads, low pH elution, blot for RhoGDIα; HCT116 and RKO cells with NDRG1 overexpression or knockdown and their controls
binder,measurement,value
"RhoGDIα (protein, UniProt P52565 1-204) MAEQEPTAEQLAQIAAENEEDEHSVNYKPPAQKSIQEIQELDKDDESLRKYKEALLGRVAVSADPNVPNVVVTGLTLVCSSAPGPLELDLTGDLESFKKQSFVLKEGVEYRIKISFRVNREIVSGMKYIQHTYRKGVKIDKTDYMVGSYGPRAEEYEFLTPVEEAPKGMLARGSYSIKSRFTDDDKTDHLSWEWNLTIKKDWKD",binding,binds
